Structures can show the parent of a compound that is named as a salt. The name of at least one read-out is uncertain.
Test system: vagal nerve of chicken
Test: Test of inhibition of the action potential of the vagal nerve of chicken
Settings: parameter (a); read-out: ED50, increase of the stimulation threshold
From the text: For these tests two investigation parameters were selected:
(a) increase of the stimulating threshold necessary to induce the appearance of the action potential;
(b) inhibition of the potential width as induced by the supra maximum stimulation. AL 12 and AL 12 B were compared with the tetracaine.

| Compound | EC50 |
| --- | --- |
| CCN(CC)CCN1C(=O)c2ccccc2C1=Cc1ccc(OC)cc1 [AL 12, 3-(4-methoxybenzylidene)-2-(β-diethylaminoetyl)phthalimidine hydrochloride] | ~65 µM |
| CCCCNc1ccc(C(=O)OCCN(C)C)cc1 [tetracaine, reference compound] | ~65 µM |
